Measurements reported in PubChem BioAssay AID1224828 (NIAID, 2016)
Purpose: 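Regulators linking TLR4 signalling to p65 nuclear translocation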 (primary screen). System: mouse RAW264.7 G9 macrophage reporter cells (GFP-p65, Tnf promoter-mCherry). Knock-down reagent: siRNA pool against mouse genes, 100 nM. Timing: 2 days siRNA transfection, then 40 min LPS before fixation. Treatment: LPS (Salmonella minnesota R595) at 10 ng/ml. Detection: 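Microscopy ratio of nuclear to perinuclear-ring GFP-p65 signal, scaled to the plate median; gene score is the average of two replicate robust z-scores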. Scale: p65 translocation robust z-score: higher = more nuclear NF-kappaB p65 after LPS than the plate median; nuclear/cytoplasmic p65 ratio: higher = more nuclear NF-kappaB p65. Rule for the call: 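Called active when z exceeds 3.3 or falls under -1.56 (median of Tlr4 controls), giving activity score of at least 50; no calls for control wells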. Calls: active = hit (p65 shift raised or lowered); inactive = no clear change.
The whole screen tested about 17,000 reagents; below is an unselected part. In the full data, 762 (4.5%) are marked active. 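Active calls include both raised and lowered p65 entry, mostly lowered; wells with fewer than 50 cells lack a z-score.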 Raw values are not corrected between plates. Entries without a mark were called inactive.

With knock-down of Slc30a9, the record shows nuclear/cytoplasmic p65 ratio, rep 1 = 1.24; nuclear/cytoplasmic p65 ratio, rep 2 = 1.06; low cell count flag fewer than 50 cells per well; well left out of scoring.
Against Spata4 (spermatogenesis associated 4) the deposit lists p65 translocation robust z-score -0.8; nuclear/cytoplasmic p65 ratio, rep 1 = 1.33; nuclear/cytoplasmic p65 ratio, rep 2 = 1.13; low cell count flag enough cells to score.
Against Tnfaip3 (tumor necrosis factor, alpha-induced protein 3), the entry reads p65 translocation robust z-score 1.52; nuclear/cytoplasmic p65 ratio, rep 1 = 1.69; nuclear/cytoplasmic p65 ratio, rep 2 = 1.77; low cell count flag enough cells to score.
Silencing of Hscb (HscB iron-sulfur cluster co-chaperone) resulted in: p65 translocation robust z-score -0.4; nuclear/cytoplasmic p65 ratio, rep 1 = 1.43; nuclear/cytoplasmic p65 ratio, rep 2 = 1.57; low cell count flag enough cells to score.
Arfgef1 (ARF guanine nucleotide exchange factor 1) showed p65 translocation robust z-score 0.24; nuclear/cytoplasmic p65 ratio, rep 1 = 1.47; nuclear/cytoplasmic p65 ratio, rep 2 = 1.43; low cell count flag enough cells to score.
Against Tuft1 (tuftelin 1) the deposit lists p65 translocation robust z-score 2.47; nuclear/cytoplasmic p65 ratio, rep 1 = 1.65; nuclear/cytoplasmic p65 ratio, rep 2 = 1.56; low cell count flag enough cells to score.
Retn (resistin) scored p65 translocation robust z-score 0.72; nuclear/cytoplasmic p65 ratio, rep 1 = 1.45; nuclear/cytoplasmic p65 ratio, rep 2 = 1.36; low cell count flag enough cells to score.

Taken from above:
Slc30a9, low cell count flag = fewer than 50 cells per well; well left out of scoring
Result for Spata4 (spermatogenesis associated 4) in “low cell count flag”: enough cells to score

The listing continues:
Ocrl (OCRL, inositol polyphosphate-5-phosphatase) scored p65 translocation robust z-score -0.07; nuclear/cytoplasmic p65 ratio, rep 1 = 1.66; nuclear/cytoplasmic p65 ratio, rep 2 = 1.54; low cell count flag enough cells to score.
With knock-down of Wfdc15a (WAP four-disulfide core domain 15A), the screen gave p65 translocation robust z-score -0.79; nuclear/cytoplasmic p65 ratio, rep 1 = 1.29; nuclear/cytoplasmic p65 ratio, rep 2 = 1.31; low cell count flag enough cells to score.
Ankrd33 (ankyrin repeat domain 33) gave nuclear/cytoplasmic p65 ratio, rep 1 = 1.27; nuclear/cytoplasmic p65 ratio, rep 2 = 1.39; low cell count flag fewer than 50 cells per well; well left out of scoring.
After knock-down of Afp (alpha fetoprotein), the screen gave p65 translocation robust z-score 0.05; nuclear/cytoplasmic p65 ratio, rep 1 = 1.62; nuclear/cytoplasmic p65 ratio, rep 2 = 1.64; low cell count flag enough cells to score.
Scgb2b2 (secretoglobin, family 2B, member 2) gave p65 translocation robust z-score 0.15; nuclear/cytoplasmic p65 ratio, rep 1 = 1.57; nuclear/cytoplasmic p65 ratio, rep 2 = 1.76; low cell count flag enough cells to score.
Depletion of Arhgef10 (Rho guanine nucleotide exchange factor 10) gave: p65 translocation robust z-score -0.82; nuclear/cytoplasmic p65 ratio, rep 1 = 1.43; nuclear/cytoplasmic p65 ratio, rep 2 = 1.56; low cell count flag enough cells to score.
Against Trim65 (tripartite motif-containing 65), the values are nuclear/cytoplasmic p65 ratio, rep 1 = 1.25; nuclear/cytoplasmic p65 ratio, rep 2 = 1.17; low cell count flag fewer than 50 cells per well; well left out of scoring.
